The record followed here is PubChem BioAssay AID1273 (Columbia University Molecular Screening Center, 2008).

Structures are written as SMILES. This is one part of the list. Further columns of the screen follow, without active or inactive calls. Compounds called inactive in the main read-out are mostly missing here.

The nature of this assay: inhibitors of insulin promoter-driven GFP, primary screen, imaging, TRM-6 cells (human fetal islet line), eGFP reporter, cell count (AID 1273;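 further: cells exposed to compound for 48 h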). To be noted: measured here: cell count, toxicity, at 2 µM, reporter expression induced with tamoxifen.
Consider `CCCCN(CCCC)C(=O)C[n+]1cccc(/C=N/O)c1`, for which the normalized cell count is 120%.
`O=C(CCC(=O)NNC(=O)Cc1ccccc1)NCc1ccccc1` displayed a normalized cell count of 115%.
Under `Cc1cc(=O)oc2cc(OCC(=O)OCC(=O)Nc3ccccc3C(C)C)ccc12` stands 113%.
Under `Cc1ccc(/C=C/C(=O)NCc2ccccn2)o1` stands 94.7%; under `CCc1nc2cc([N+](=O)[O-])c([N+](=O)[O-])cc2[nH]1`, 137%.
Under `COc1ccc(-c2cn[nH]c2N)c(OC)c1` stands 84.8%; under `Cc1cc(C)cc(OCC(=O)N2N=C(C(F)(F)F)CC2(O)C(C)(C)C)c1` (configuration not stated), 46.6%.
In turn, `O=C(Nc1nnc(-c2cccs2)s1)C1CC1` returned a normalized cell count of 171%.
In the case of `CC(C)CSc1nsc(N)n1` it was 81.4%.
In the case of `Cc1cc(N)n2ncc(-c3ccc(F)cc3)c2n1` it was 178%; in that of `COc1ccc(CN(C2CCCC2)S(=O)(=O)c2ccc(-n3cnnn3)cc2)cc1`, 104%.
In the case of `O=C(NCCSc1ccccc1)c1cncc(Br)c1` it was 134%; in that of `CCCC12CN3CCN(CC(C3)/C1=N\NC(=O)Nc1ccccc1)C2`, 0.44%.
Consider `Cc1c(NC(=O)c2cnn3cccnc23)c(=O)n(-c2ccccc2)n1C`, for which the normalized cell count is 114%.
Under `O=C(O)[C@H]1CCCC[C@H]1C(=O)NCCNC(=O)[C@@H]1CCCC[C@@H]1C(=O)O` stands 17.4%.
Take `COc1ccc(C(C)=O)cc1CSc1nc2cc(Cl)ccc2o1`: the normalized cell count amounted to 94.6%.
Under `CCCNC(=O)OCCC12CC3CC(CC(C3)C1)C2` stands 115%; under `O=C(Nc1cccc(F)c1)c1ccc(-c2ccccc2Cl)o1`, 104%.
Under `O=C(Cc1c2ccccc2nc2ccccc12)c1ccccc1` stands 137%.
For the compound `CCOC(=O)c1cnc2c(ccc3ccccc32)c1NCCO`, the normalized cell count was 125%.
Under `N#Cc1ccsc1NC(=O)COc1ccc(-c2nnco2)cc1` stands 97%; under `COc1ccc(NC(=O)c2cccnc2Nc2ccc(OC)cc2)cc1`, 70.7%; under `COc1cc(C(=O)Nc2cccc(-c3nc4cc(C)ccc4o3)c2)cc(OC)c1OC`, 117%.
Regarding `CCCCCn1nc(C)c(/C=N/NC(=O)c2ccoc2C)c1C`, the normalized cell count was determined as 83.5%.
Under `CCN(CC)C(=O)Nc1ccc(C(=O)OC)cc1` stands 234%.
Under `COCCN1C=C(C(=O)OC)C(c2ccc(OC)c(OC)c2)C(C(=O)OC)=C1` stands 73.8%; under `C/C(=N\Nc1cc(C(F)(F)F)ccc1Cl)c1ccccc1O`, 169%; under `Cc1ccccc1C(=O)N1CCN(c2ccc(NC(=O)c3ccco3)cc2Cl)CC1`, 124%.
Under `COc1ccccc1C(=O)Oc1cc(N)n(S(=O)(=O)c2ccc(C)cc2)n1` stands 81.3%.
For the compound `CC(NC(=O)c1ccccc1)c1ccc(Br)cc1` (configuration not stated), the normalized cell count was found to be 45.6%.
Under `COc1ccc(CCNc2oc(Cc3cccc4ccccc34)nc2C#N)cc1OC` stands 28.7%.
Under `CCN(CC)CCCNC(=O)c1nn(-c2ccc(OC)cc2OC)c(=O)c2ccccc12` stands 61.2%; under `COC(=O)Cc1[nH]n(-c2nc3ccccc3s2)c(=O)c1C(C)=Nc1ccc(C)cc1`, 126%; under `CC(C)(C)NC(=O)NC(=O)CN1CCN(c2ncc(C(F)(F)F)cc2Cl)CC1`, 101%.
In the case of `CCCCSc1ncc(C(=O)OCC)c(N)n1` it was 160%; in that of `O=C1NC2=C(CCc3ccccc32)C(c2ccccc2)N1` (configuration not stated), 104%.
With `O=C(Cn1nc(-c2ccccc2)c2ccccc2c1=O)Nc1cccnc1`, the normalized cell count worked out at 61.3%.
Under `CC(Sc1nnc(-c2ccc(O)cc2)o1)C(=O)Nc1cccc2ccccc12` (configuration not stated) stands 30.9%.
As for `C(=Nc1ccc(Nc2ccccc2)cc1)c1ccc2ccccc2c1`, the normalized cell count amounted to 70.8%.
Under `CCCOc1ccc(C2/C(=C(\O)c3c(C)[nH]c(C(=O)OC)c3C)C(=O)C(=O)N2CCN(C)C)cc1` (configuration not stated) stands 59.6%; under `COc1ccccc1-c1nc(C#N)c(N2CCN(C(c3ccccc3)c3ccccc3)CC2)o1`, 70.9%.
`COc1ccc(CCNC(=O)CSc2ncn[nH]2)cc1` registered a normalized cell count of 33.5%.
In the case of `Cc1ccc(S(=O)(=O)N(CC(=O)O)c2ccc(Cl)c(C(F)(F)F)c2)cc1` it was 69.6%; in that of `COc1cc2c(cc1OC)C(C)N(C(C)=O)CC2` (configuration not stated), 37.3%.
Compound `O=C(Nc1ccccc1)N1CC=C(c2ccc(F)cc2)CC1` displayed a normalized cell count of 138%.
Under `COc1cc(C(=O)c2ccccc2)c(OC)cc1C(=O)Nc1ccc(O)cc1` stands 104%; under `CCn1c(C)nc2cc(C(=O)N/N=C/c3ccc(O)cc3)ccc21`, 53%; under `COc1cccc(-n2nnnc2SCC(=O)NC2CCCC2)c1`, 100%.
In the case of `Cc1cc(C)nc(N2CCCC(C(=O)NCCc3ccc(F)cc3)C2)n1` (configuration not stated) it was 67.5%; in that of `CCCc1c2ccccc2nc2ccccc12`, 122%; in that of `CCOC(=O)COn1c(=O)c[n+]([O-])c2ccccc21`, 24%.
In the case of `O=C(OCCCCN1C(=O)c2ccccc2C1=O)c1ccc(Br)o1` it was 101%.
With `CCSc1nnc(NC(=O)C(C)(C)C)s1`, the normalized cell count worked out at 117%.
`CNC(=O)CN(C#N)c1nc(N(C)C)nc(N(C)C)n1` displayed a normalized cell count of 86%.
In the case of `COc1cc(/C=C\C(=O)NCc2ccc3[nH]c(C)cc3c2)cc(OC)c1OC` it was 115%.
In the case of `O=C(O)c1cnc2ccccc2n1` it was 53.5%.
Consider `CCC(C)Sc1nc2ccccc2c(=O)[nH]1` (configuration not stated), for which the normalized cell count came to 129%.
In the case of `O=C(NCc1ccc2c(c1)OCO2)C1(S(=O)(=O)c2ccccc2)CC1` it was 155%.
In the case of `COc1ccc(NC(=O)C(c2ccc(OC)cc2)N(C)C(=O)CNC(C)=O)cc1` (configuration not stated) it was 101%; in that of `Cc1nc(NCCc2ccccc2)c2oc3ccccc3c2n1`, 150%; in that of `CCc1nc2c(cnn2-c2ccc(Cl)cc2)c(=O)n1-c1ccc(OC)cc1`, 48.8%.
In the case of `c1ccc(-c2nc(-c3ccccn3)no2)cc1`, the normalized cell count was found to be 126%.
`CC(C(=O)Nc1ccc(S(=O)(=O)N2CCOCC2)cc1)N(c1ccccc1)S(C)(=O)=O` (configuration not stated) returned a normalized cell count of 82.5%.
With `Cc1ccccc1N1C(=O)C(Cl)=C(N2CCN(c3ccccc3)CC2)C1=O`, the normalized cell count was found to be 73%.
In the case of `Cc1nn(C)cc1CNC(=O)c1cccc(Br)c1` it was 137%; in that of `Cc1cc(C(=O)NCCCN(C)C)c2ccccc2n1`, 82.5%.
Under `O=C(Nc1nc(-c2ccc(S(=O)(=O)N3CCCCCC3)cc2)cs1)c1cccs1` stands 74.3%; under `CC(C)C(=O)c1cc2c(cc1NC(=O)c1cccs1)OCCO2`, 86.1%.
Consider `Cc1sc2ncnc(SCC(=O)NC3CC3)c2c1C`, for which the normalized cell count turned out to be 0.46%.
With `CCc1nnc(NS(=O)(=O)c2ccc(NC(=O)c3cccc(Cl)c3)cc2)s1`, the normalized cell count is 193%.
In the case of `Cc1ccc(S(=O)(=O)NCC(=O)OCC(=O)Nc2cccc(S(=O)(=O)NC3=NCCCCC3)c2)cc1` it was 63%.
The compound `Cc1cc2c3c(ccc(C)c3n1)N=CN2c1ccccc1` had a normalized cell count of 122%.
In the case of `O=C(NCc1ccccn1)C(=O)NCc1ccccn1` it was 107%.
`COc1ccc(OC)c(NC(=O)CN2CCC(C(=O)c3ccc(C)cc3)CC2)c1` gave a normalized cell count of 214%.
Under `COc1ccc(C(=O)NCCN2CCOCC2)cc1OC` stands 101%.
Under `CC(=O)N1CCN(C(=O)c2cc(C)nc3ccccc23)CC1` stands 88%; under `Cc1ccnc(SCCn2c(N3CCC(C)CC3)nc3c2c(=O)n(C)c(=O)n3C)n1`, 89.7%; under `Cc1oc2c(c1C(=O)Nc1cccc(C(=O)O)c1)CCCC2`, 121%.
In the case of `Cc1nc([N+](=O)[O-])c(Br)n1CC(=O)c1ccc(Cl)cc1` it was 89.5%; in that of `COC(=O)CNC(=O)c1ccc(=O)oc1`, 55.9%.
Regarding `COc1ccc(C2OCC3(CO2)SC(=O)NC3=O)cc1` (configuration not stated), the normalized cell count came to 146%.
Under `O=C(Oc1ccc(N(Cc2cccs2)C2=NS(=O)(=O)c3ccccc32)cc1)c1ccccc1Cl` stands 119%; under `COc1ccc(/C=N/Nc2nccnc2Cl)cc1`, 114%; under `COc1ccc2[nH]c3c(=O)n(N)c(C)nc3c2c1`, 189%.
Under `COc1cccc(CNc2ncnc3cc(Cl)ccc23)c1` stands 223%.
Under `COc1ccc(-c2nc3ccccc3[nH]2)cc1` stands 139%.
As for `CC1CCN(C(=O)Cc2nn(C)c(=O)c3ccccc23)CC1`, the normalized cell count was found to be 127%.
In the case of `COCC(=O)N(Cc1ccccc1)c1ccccn1` it was 75.4%; in that of `Cc1c(-c2nc(N)nc(Nc3ccc(F)cc3)n2)oc2ccccc12`, 117%.
Compound `CCCn1nnnc1SCC(=O)N1CCOCC1` registered a normalized cell count of 142%.
For `CCc1nc(Nc2ccc3c(c2)OCO3)c2oc3ccccc3c2n1`, the normalized cell count came to 158%.
In the case of `CCOC(=O)c1nn(-c2cccc(Cl)c2)c(C)c1C(C)=O` it was 155%.
Under `CCC(=O)Nc1ccc(C(=O)CSc2nc3ccccc3[nH]2)cc1` stands 115%.
In the case of `N#C/C(=C/c1ccc(Sc2nc3ccccc3[nH]2)o1)c1cccc(F)c1` it was 147%; in that of `CCOC(=O)N1CCN(C(=O)CCSCCc2ccncc2)CC1`, 66.7%; in that of `Cc1ccc(/C=C/c2nc3ccccc3[nH]2)o1`, 141%.
`COc1ccc(C(=O)C(CN2CCOCC2)c2ccccc2)cc1` (configuration not stated) returned a normalized cell count of 46.3%.
Under `O=[N+]([O-])c1cccc(-c2nc3ccc([N+](=O)[O-])cc3[nH]2)c1` stands 168%.
As for `O=C1CCC(C(=O)NC2(C(=O)NC3CCCCC3)CCCCC2)N1` (configuration not stated), the normalized cell count was found to be 135%.
In turn, `Fc1ccc2nc3[nH]c4ccccc4c3nc2c1` gave a normalized cell count of 96.4%.
In the case of `COc1ccccc1Cn1c(=O)c2ccccc2n2c(Sc3ncnc4sccc34)nnc12` it was 127%.
In the case of `O=C(CN1C(=O)CSc2ccc(S(=O)(=O)N3CCCCC3)cc21)NCc1cccnc1` it was 117%.
In the case of `Clc1ccc2c(NCc3ccco3)ncnc2c1` it was 132%; in that of `COc1ccc(-c2[nH]nc3oc(=O)c(CCO)c(C)c23)cc1`, 169%; in that of `COc1ccc(-n2c(Cc3cccn3C)nnc2SCC(=O)NC2CCCC2)cc1`, 38.6%.
The compound `NC(=O)CSc1nnc2ccc(-c3ccco3)nn12` registered a normalized cell count of 48.4%.
In the case of `CNC(=O)c1ccsc1NC(=O)c1ccc2c(c1)CCCC2` it was 143%; in that of `c1ccn2cc(-c3ccc4c(c3)OCCO4)nc2c1`, 143%.
Under `CCN(CC)S(=O)(=O)c1ccc(N/N=C/c2cc(OC)ccc2O)nc1` stands 65%; under `Cn1c(=O)c2c(nc(CN3CCN(Cc4ccccc4)CC3)n2Cc2ccccc2)n(C)c1=O`, 112%; under `O=C(CC1SC2=NCCN2C1=O)Nc1ccc(Cl)cc1` (configuration not stated), 80.3%.
As for `Cc1ccc(CNC(=O)c2ccc(-n3cccc3)cc2)cc1`, the normalized cell count stood at 46%.
Under `C=CC(O)Cc1c(C)n[nH]c1C` (configuration not stated) stands 80.1%.
In the case of `Cc1ccc(C2=NC3(CCCCC3)NC2=S)cc1` it was 160%; in that of `O=C(NCc1ccco1)c1ccc(C(F)(F)F)cc1`, 57.1%.
In the case of `CCN(c1ccc(NS(=O)(=O)c2cc(Cl)ccc2Cl)cc1)C(C)C` it was 101%.
`O=C(c1cc2ccccc2oc1=O)N1CCN(c2ncccn2)CC1` yielded a normalized cell count of 90%.
